For experiment [1], the target named is T1, mCherry-APPL1 (UniProt Q9UKG1).
T1 sequence: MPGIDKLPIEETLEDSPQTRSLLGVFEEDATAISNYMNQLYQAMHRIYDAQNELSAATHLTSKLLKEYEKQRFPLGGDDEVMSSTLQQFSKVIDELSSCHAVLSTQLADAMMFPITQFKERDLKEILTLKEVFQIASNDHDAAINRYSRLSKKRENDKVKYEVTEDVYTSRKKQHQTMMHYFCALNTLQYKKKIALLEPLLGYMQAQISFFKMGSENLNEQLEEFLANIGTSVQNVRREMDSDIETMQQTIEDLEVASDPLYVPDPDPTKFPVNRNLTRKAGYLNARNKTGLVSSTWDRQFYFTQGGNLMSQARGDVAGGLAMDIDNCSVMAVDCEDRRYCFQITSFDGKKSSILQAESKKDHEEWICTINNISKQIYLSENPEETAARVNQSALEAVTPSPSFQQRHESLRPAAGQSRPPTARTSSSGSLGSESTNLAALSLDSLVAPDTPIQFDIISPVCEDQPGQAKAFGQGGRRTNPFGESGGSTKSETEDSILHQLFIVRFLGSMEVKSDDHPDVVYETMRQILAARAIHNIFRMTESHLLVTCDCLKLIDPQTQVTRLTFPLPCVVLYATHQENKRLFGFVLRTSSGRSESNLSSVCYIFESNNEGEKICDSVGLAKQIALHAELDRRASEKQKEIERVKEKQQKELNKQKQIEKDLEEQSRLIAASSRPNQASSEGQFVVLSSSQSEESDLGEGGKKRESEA
Nature of the experiment: FRET or BRET; FRET/FLIM in live primary hippocampal neurons; GFP-Akt1 donor, mCherry-APPL1 acceptor; after dynasore treatment for 5 min. In general terms: Bioluminescence resonance energy transfer reports proximity on the nanometre scale.

Sequences of proteins named here, by UniProt entry; tags and fusion partners are left off.
UniProt P31749: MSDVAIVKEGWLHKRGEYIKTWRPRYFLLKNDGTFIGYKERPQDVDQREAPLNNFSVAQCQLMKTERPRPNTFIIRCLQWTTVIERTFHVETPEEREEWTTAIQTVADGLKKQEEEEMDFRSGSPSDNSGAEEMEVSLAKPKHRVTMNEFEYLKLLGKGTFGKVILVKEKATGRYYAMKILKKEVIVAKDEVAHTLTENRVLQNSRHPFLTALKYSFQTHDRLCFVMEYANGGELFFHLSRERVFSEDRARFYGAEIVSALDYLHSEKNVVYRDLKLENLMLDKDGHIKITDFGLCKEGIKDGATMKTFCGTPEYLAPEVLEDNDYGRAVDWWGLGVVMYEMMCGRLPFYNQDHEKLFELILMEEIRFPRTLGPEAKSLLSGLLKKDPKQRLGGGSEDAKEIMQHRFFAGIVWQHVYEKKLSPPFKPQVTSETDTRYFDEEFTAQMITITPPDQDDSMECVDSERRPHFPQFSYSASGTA

Experiment [2] addresses T1, mCherry-APPL1. Nature of the experiment: FRET or BRET; FRET/FLIM in live primary hippocampal neurons at DIV 7, 37 °C; GFP-Akt1 donor, mCherry fusion acceptor; donor lifetime measured in cell body and growth cone; untreated.

Results are given in words; binding and its absence hold for the method and conditions named. Binding seen in cells or lysates may run through a third protein. Some results given as binding are weak or reduced against the parent protein; the word gives no strength.

With GFP-Akt1 (from UniProt P31749 1-480), the binding entry in experiment [1] is “no binding (condition: after dynasore treatment for 5 min)”; in experiment [2] it was “binds”.

(Values after PMC6385319.)
